This is an account of results in US4370330A, “Method of enhancing circulation with piperazines” (Merz & Company, priority 1979, dated 1983).

Where two headings read alike, the source gives them in different places.

`C(=C\c1ccccc1)/CN1CCN(C(c2ccccc2)c2ccccc2)CC1` [Cinnarizine, reference compound]: the ED50 (Table 2, mean effective dose) was 0,6 mg/kg and the ED50 (Table 6) is recorded as 0.6 mg/kg.

As usually defined, the ED50 is the dose at which the effect has come halfway, by size or by number of responders. Lower therefore signals greater potency.
